# Test results taken from publication PMC10880206.
# Chains of the proteins cited; added tags and fusions are not shown.
# UniProt P42224: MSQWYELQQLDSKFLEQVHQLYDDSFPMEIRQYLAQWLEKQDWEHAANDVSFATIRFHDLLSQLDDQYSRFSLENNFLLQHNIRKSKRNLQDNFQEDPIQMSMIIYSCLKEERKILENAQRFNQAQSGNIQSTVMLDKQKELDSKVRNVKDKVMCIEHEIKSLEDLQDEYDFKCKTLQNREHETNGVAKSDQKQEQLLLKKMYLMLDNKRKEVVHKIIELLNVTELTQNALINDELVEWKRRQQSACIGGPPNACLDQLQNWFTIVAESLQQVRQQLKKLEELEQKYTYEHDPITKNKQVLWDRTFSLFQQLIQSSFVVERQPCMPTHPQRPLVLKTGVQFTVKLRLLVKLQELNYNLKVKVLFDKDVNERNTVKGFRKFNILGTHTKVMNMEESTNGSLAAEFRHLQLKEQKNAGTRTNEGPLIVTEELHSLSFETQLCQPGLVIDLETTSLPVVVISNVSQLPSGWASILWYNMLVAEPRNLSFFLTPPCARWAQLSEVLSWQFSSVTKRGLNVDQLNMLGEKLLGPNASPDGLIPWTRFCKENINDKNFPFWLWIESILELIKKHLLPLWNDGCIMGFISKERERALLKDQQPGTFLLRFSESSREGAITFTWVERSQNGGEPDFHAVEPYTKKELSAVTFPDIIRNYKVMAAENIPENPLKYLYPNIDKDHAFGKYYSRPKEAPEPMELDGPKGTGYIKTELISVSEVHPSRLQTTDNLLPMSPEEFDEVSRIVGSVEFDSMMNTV
# Results are given in words; binding and its absence hold for the method and conditions named. Binding seen in cells or lysates may run through a third protein. Some results given as binding are weak or reduced against the parent protein; the word gives no strength. For some of these results: Where a sequence is shown, tags or fusion partners need not be part of it.
# Tests used:
# [1] = molecular target: T1, LATS2 (endogenous, KLE cells) (human (endogenous in KLE)) (UniProt Q9NRM7); experiment: co-IP; endogenous proteins in KLE cell lysate, pre-cleared with protein-A/G agarose; immunoprecipitated overnight with anti-LATS1, anti-LATS2 or anti-STAT1 antibody, then protein-A/G agarose 2 h at 4 °C; western blotting
# T1 sequence: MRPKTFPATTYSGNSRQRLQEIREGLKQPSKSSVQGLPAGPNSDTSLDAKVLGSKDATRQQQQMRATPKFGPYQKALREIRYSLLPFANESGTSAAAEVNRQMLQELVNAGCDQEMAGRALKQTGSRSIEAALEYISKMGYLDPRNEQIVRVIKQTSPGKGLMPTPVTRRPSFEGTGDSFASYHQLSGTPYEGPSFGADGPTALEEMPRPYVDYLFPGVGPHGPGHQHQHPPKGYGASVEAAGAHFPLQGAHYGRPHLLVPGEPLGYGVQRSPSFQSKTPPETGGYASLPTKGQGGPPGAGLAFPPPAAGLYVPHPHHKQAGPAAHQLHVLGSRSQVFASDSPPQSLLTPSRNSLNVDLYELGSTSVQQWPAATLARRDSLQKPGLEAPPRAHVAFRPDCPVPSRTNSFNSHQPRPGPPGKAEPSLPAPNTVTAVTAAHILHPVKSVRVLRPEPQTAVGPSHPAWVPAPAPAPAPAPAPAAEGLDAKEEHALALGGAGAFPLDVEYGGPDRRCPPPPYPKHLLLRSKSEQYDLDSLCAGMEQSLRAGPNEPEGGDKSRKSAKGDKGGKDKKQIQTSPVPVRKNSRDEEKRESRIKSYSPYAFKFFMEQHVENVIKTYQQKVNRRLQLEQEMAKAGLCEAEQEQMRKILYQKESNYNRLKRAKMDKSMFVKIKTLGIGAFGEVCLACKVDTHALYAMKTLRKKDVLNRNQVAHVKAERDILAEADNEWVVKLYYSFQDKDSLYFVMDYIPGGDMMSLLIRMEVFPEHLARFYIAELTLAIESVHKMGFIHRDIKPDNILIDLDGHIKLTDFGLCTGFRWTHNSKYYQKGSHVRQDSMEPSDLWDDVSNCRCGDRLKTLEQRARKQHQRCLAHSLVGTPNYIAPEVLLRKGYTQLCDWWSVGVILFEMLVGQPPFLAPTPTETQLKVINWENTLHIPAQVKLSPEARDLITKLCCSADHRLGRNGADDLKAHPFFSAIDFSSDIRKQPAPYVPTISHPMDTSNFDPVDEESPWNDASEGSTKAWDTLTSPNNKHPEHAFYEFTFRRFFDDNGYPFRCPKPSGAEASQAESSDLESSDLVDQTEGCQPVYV
# [2] = molecular target: T2, LATS1 (endogenous, KLE cells) (human (endogenous in KLE)) (UniProt O95835); experiment: as above
# T2 sequence: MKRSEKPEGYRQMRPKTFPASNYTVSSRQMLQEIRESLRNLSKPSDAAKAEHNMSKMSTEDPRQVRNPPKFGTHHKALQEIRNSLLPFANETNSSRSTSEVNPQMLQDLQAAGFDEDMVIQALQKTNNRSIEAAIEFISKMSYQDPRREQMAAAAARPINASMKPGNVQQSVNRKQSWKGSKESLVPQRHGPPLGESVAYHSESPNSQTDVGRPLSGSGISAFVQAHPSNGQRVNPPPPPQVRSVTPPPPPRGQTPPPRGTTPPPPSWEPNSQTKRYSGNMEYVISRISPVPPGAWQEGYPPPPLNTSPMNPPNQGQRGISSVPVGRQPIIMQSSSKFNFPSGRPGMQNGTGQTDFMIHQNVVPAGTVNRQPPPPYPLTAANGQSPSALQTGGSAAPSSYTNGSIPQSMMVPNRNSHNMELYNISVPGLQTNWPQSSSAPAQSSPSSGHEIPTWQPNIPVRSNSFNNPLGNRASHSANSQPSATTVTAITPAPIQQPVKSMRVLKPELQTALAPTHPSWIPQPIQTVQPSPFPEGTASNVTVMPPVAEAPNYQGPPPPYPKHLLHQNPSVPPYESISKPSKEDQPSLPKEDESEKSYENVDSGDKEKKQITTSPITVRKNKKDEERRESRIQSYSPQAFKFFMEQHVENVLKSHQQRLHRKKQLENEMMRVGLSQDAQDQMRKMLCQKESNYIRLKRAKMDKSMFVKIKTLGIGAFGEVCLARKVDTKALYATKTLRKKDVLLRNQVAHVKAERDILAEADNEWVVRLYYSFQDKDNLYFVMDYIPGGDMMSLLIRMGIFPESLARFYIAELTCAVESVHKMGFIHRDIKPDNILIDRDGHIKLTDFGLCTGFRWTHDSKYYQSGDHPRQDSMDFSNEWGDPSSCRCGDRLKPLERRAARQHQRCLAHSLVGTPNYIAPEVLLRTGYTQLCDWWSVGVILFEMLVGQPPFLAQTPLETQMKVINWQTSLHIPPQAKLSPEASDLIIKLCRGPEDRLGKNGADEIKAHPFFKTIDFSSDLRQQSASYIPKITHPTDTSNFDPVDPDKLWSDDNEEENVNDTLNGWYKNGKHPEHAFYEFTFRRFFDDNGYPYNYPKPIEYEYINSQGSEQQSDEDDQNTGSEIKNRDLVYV
# Flag-LATS1 = molecular target: T3, Flag-LATS1 (UniProt O95835); experiment: co-IP; Flag-LATS1 or Flag-LATS2 and myc-STAT1 co-expressed in 293T cells for 24 h; lysis in 50 mM Tris-HCl pH 8.0, 150 mM NaCl, 0.05 mM EDTA, 1% NP40, 10% glycerol; immunoprecipitated overnight with anti-FLAG beads; western blotting
# T3 sequence: T2 sequence
# Flag-LATS2 = molecular target: T4, Flag-LATS2 (UniProt Q9NRM7); experiment: as above
# T4 sequence: T1 sequence
Substance,binding [1],binding [2],binding (Flag-LATS1),binding (Flag-LATS2)
"STAT1 (endogenous, KLE cells) (from UniProt P42224 1-750)",binds,binds,–,–
myc-STAT1 (from UniProt P42224 1-750),–,–,binds,binds
